Measurements reported in patent publication US20230287217A1, “Zwitterionic Cell-Permeant and Water-Soluble Rhodamine Dyes for Quantitative Imaging Applications” (OREGON HEALTH & SCIENCE UNIVERSITY, priority 2020, published 2023).
For at least one compound, name, drawing or mass did not settle the structure.

Experiment: UV-Vis absorption and fluorescence spectroscopy (spectral properties in aqueous media / PBS buffer)
Format: physicochemical
Parameters: Brightness: unit not given here
Details: for FWHMabs (nm): absorption band width; for λabs (nm): absorption maximum; for FWHem (nm): emission band width; for λem (nm): emission maximum; for ε (M^-1 cm-1): extinction coefficient from Beer's Law plots; for ϕ: relative quantum yield, TMR and SiTMR as reference
Method: UV-Vis and fluorescence spectra were collected on a SpectraMax M5 spectrometer with a Microplate reader (Molecular Devices, Sunnyvale, CA). All absorbance spectra were reference corrected. Extinction coefficient was calculated from Beer’s Law plots of absorbance versus concentration. Relative quantum yields are reported using TMR and SiTMR as reference.

Cc1cc(C(=O)NCCOCCOCCCCCCCl)ccc1C1=C2C=C/C(=[N+](/C)CCCS(=O)(=O)[O-])C=C2[Si](C)(C)c2cc(N(C)C)ccc21 [OF650HALO, (E)((10-(4-((2-(2-((6-chlorohexyl)oxy)ethoxy)ethyl)carbamoyl)-2-methylphenyl)-7-(dimethylamino)-5,5-dimethyldibenzo[b,e]silin-3(5H)-ylidene)(methyl)ammonio)propane-1-sulfonate]
Brightness: 48
Stokes Shift (nm): 21 nm
FWHMabs (nm): 33 nm
λabs (nm): 653 nm
FWHem (nm): 41 nm
λem (nm): 674 nm
ε (M^-1 cm-1): 145,700 M^-1 cm-1
ϕ: 0.33

Cc1cc(C(=O)NCc2ccc(COc3nc(N)nc4[nH]cnc34)cc2)ccc1C1=C2C=C/C(=[N+](/C)CCCS(=O)(=O)[O-])C=C2[Si](C)(C)c2cc(N(C)C)ccc21 [OF650SNAP, (E)((10-(4-((4-(((2-amino-9H-purin-6-yl)oxy)methyl)benzyl)carbamoyl)-2-methylphenyl)-7-(dimethylamino)-5,5-dimethyldibenzo[b,e]silin-3(5H)-ylidene)(methyl)ammonio)propane-1-sulfonate]
Brightness: 20
Stokes Shift (nm): 18 nm
FWHMabs (nm): 35 nm
λabs (nm): 653 nm
FWHem (nm): 40 nm
λem (nm): 671 nm
ε (M^-1 cm-1): 82,000 M^-1 cm-1
ϕ: 0.24
